Data published in PubChem BioAssay AID1347076 (National Center for Advancing Translational Sciences (NCATS), 2019).
Where “and” joins values, the source holds several entries; their conditions need not be identical. Identical values can stand only once. Hit rate of the full screen: of about 400,000 compounds, about 13,000 (3.2%) were called active. Inconclusive means that the source gave no clear call. Such entries were picked first, then a sample of the others. Calls come from the whole dose curve; as a rule, active = well fitted cell-killing curve with a large enough effect; inconclusive = small, poorly fitted or top-dose-only effect, or effect the other way; inactive = flat fitted curve, though single readings scatter. Potencies of inconclusive entries are doubtful fits and often do not repeat.

assay: qHTS assay for MDR1-selective chemotherapeutics: Primary screen using the drug-selected MDR subline cells KB-V1; details: KB-V1 MDR cells viability, CellTiter-Glo, 72 h; activity change, negative = cytotoxicity: at 46.1 µM (top of the series); note: nearly all actives have a fitted effect of over 60% in size
Summary of the method: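 In this primary screen, KB-V1 cells overexpressing P-gp are incubated with library compounds (lowest to highest concentration) for 72 h at 37 degrees C before a luminescent ATP viability read.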
% is set by controls: 0 for no effect and ±100 for the full control effect; potency is the fitted concentration of half-maximal effect.

Row | Structure (SMILES) | activity change, negative = cytotoxicity | Potency
1 | Oc1ccc2ccc3[nH]cnc3c2c1 | inactive: -3.58% | 
2 | COc1cc2cc(/C=C/C(=O)c3ccco3)c(Cl)nc2cc1OC |  | inconclusive: 23.1 µM [cytotoxic, single point]
3 | COCC(C)n1c(-c2ccc3c(c2)NC(=O)CO3)csc1=Nc1ccc(OC(F)F)cc1 (centres undefined) |  | inconclusive: 18.4 µM [cytotoxic, single point]
4 | COC(=O)c1ccccc1NC(=O)CC(NCc1ccccc1)C(=O)O (centres undefined) | inactive: 0.108% | 
5 | Cc1ccc2c(C)c(C(=O)N(Cc3ccc(F)cc3)C3CCS(=O)(=O)C3)oc2c1 (centres undefined) |  | inconclusive: 3.26 µM [cytotoxic, partial curve, poor fit]
6 | COC(=O)[C@@]1(Cc2ccc(OC)cc2)[C@H]2c3cc(C(=O)N4CCCC4)n(Cc4ccc(Cl)c(C(F)(F)F)c4)c3C[C@H]2CN1C(=O)c1ccccc1 |  | inconclusive: 16.4 µM [cytotoxic, partial curve]
7 | O=C(NC(=S)Nc1ccc(Cl)cc1)c1cncc(Br)c1 | inactive: 4.2% | 
8 | O=C(Nc1cccc2cccnc12)c1ccc(Br)cc1Br | inactive: 7.4% | 
9 | COc1cccc(CNC(=O)c2cccc(Br)c2)c1 |  | inconclusive: 20.6 µM [cytotoxic, single point]
10 | Cn1cccc1/C=C1\Cc2ccccc2C1=O | inactive: -15.1% | 
11 | CCOC(=O)N1CCC(NC(=O)c2cnn(-c3ccc(F)cc3)c2-n2cccc2)CC1 |  | inconclusive: 13 µM [cytotoxic, partial curve]
12 | COc1ccc(N(C)C(=O)c2nn(-c3ccc(C)cc3)c(=O)n(C)c2=O)c(OC)c1 | inactive: -1.06% | 
13 | COc1cc2c(c(OC)c1)C(c1ccncc1)CC(=O)N2 (centres undefined) |  | inconclusive: 18.4 µM [rising, partial curve, poor fit]
14 | O=C1C(NS(=O)(=O)c2cccs2)=C(N2CCN(c3cccc(C(F)(F)F)c3)CC2)C(=O)c2ccccc21 |  | inconclusive: 18.4 µM [cytotoxic, single point]
15 | Cc1ccc(C)c(-n2c(-c3ccncc3)n[nH]c2=S)c1 | inactive: 0% | 
16 | N#CCC(=O)N/N=C/c1ccc(OC2CSC2)cc1 |  | inconclusive: 23.1 µM [rising, single point]
17 | CCOC(=O)N1CCN(C(=O)COc2ccc3c(c2)C(=O)CC(C)(C)O3)CC1 |  | inconclusive: 18.4 µM [cytotoxic, single point]
18 | COc1ccc(-c2[nH]ncc2CN2CCN(c3ccc(F)cc3)CC2)cc1 |  | inconclusive: 20.6 µM [cytotoxic, single point]
19 | CC(C)Oc1ccc(C(=O)N2CCN(c3nc4c(F)cc(F)cc4s3)CC2)cc1 | inactive: 1.8% | 
20 | Cc1ccc(S(=O)(=O)NCCCNC(=O)OCc2ccccc2)cc1 | inactive: 2.65% | 
21 | CCn1nc(C)cc1C(=O)N1CCCC(C(=O)c2ccc(Oc3ccccc3)cc2)C1 (centres undefined) |  | inconclusive: 6.51 µM [cytotoxic, partial curve, poor fit]
22 | COc1cc(C(=O)N/C(=C\c2cn(S(=O)(=O)N(C)C)c3ccccc23)C(=O)NCCCO)cc(OC)c1OC |  | inconclusive: 29.1 µM [rising, single point]
23 | O=C(CSc1ncc2c(n1)-c1cc(Cl)ccc1N(Cc1ccccc1)S2(=O)=O)Nc1ccc(F)cc1F |  | active: 13 µM

Row | Structure (SMILES) | activity change, negative = cytotoxicity | Potency
24 | CC1C/C(=C/c2ccccn2)C(=O)/C(=C/c2ccccn2)C1 (centres undefined) | inactive: 11% | 
25 | Cc1nnc(SCCn2c(N3CC(C)CC(C)C3)nc3c2c(=O)[nH]c(=O)n3C)s1 (centres undefined) |  | inconclusive: 4.61 µM [cytotoxic, partial curve]
26 | O=C(Cn1[nH]c(=O)c2ccccc2c1=O)NCCN1C(=O)S/C(=C\c2ccccc2)C1=O |  | inconclusive: 16.4 µM [cytotoxic, single point]
27 | CN1CCN(C(=S)NC(=O)c2ccc(C(C)(C)C)cc2)CC1 |  | inconclusive: 29.1 µM [cytotoxic, single point]
28 | COc1ccc(/C=C(/NC(=O)c2ccc(Br)cc2)C(=O)N2CCOCC2)cc1 |  | inconclusive: 13 µM [cytotoxic, partial curve]
29 | O=C(O)C1C(C(=O)Nc2ccc(Cl)cc2)C2C=CC1C21CC1 (centres undefined) |  | active: 20.6 µM
30 | CCCCn1cc(S(=O)(=O)c2ccccc2)c(=O)c2cc(F)c(N3CCN(CCC)CC3)cc21 |  | inconclusive: 14.6 µM [rising, partial curve, poor fit]
31 | c1ccc(NC2=NCCN2CC2CCC2)cc1 |  | inconclusive: 7.31 µM [rising, partial curve, poor fit]
32 | CC(C)n1nnc(-c2ccc(OCc3ccccc3F)cc2)n1 | inactive: 26.9% | 
33 | CC1CCCN(c2ncnc3c2cnn3-c2ccc(F)cc2)C1 (centres undefined) |  | inconclusive: 16.4 µM [cytotoxic, single point]
34 | Cc1cc(N2CCN(c3ccccc3)CC2)nc(-n2nc(C)cc2C)n1 |  | active: 2.59 µM
35 | CC1(C(=O)Nc2ccccc2Cc2ccccc2)CCN1CCc1ccccc1 (centres undefined) |  | inconclusive: 10.3 µM [cytotoxic, partial curve]
36 | Cc1ccc(NC(=O)CSc2nnc(CNC(=O)c3cccs3)o2)c(C)c1 | inactive: 0% | 
37 | COc1ccc(NS(=O)(=O)c2ccc(C)cc2)c([N+](=O)[O-])c1 |  | inconclusive: 20.6 µM [cytotoxic, single point]
38 | CN(c1ccccc1C(=O)Nc1cccc(Cl)c1Cl)S(C)(=O)=O |  | active: 16.4 µM
39 | COCCn1c(=O)[nH]c2cc(C(=O)N3CCN(c4ccc(Cl)cc4)CC3)ccc2c1=O |  | inconclusive: 20.6 µM [cytotoxic, single point] and inconclusive: 18.4 µM [cytotoxic, single point]
40 | Cc1ccc(S(=O)(=O)N2CCCCC2)cc1NC(=O)CSc1nncn1-c1ccccc1 |  | inconclusive: 23.1 µM [cytotoxic, partial curve, poor fit]
41 | COc1ccc(NC(=O)c2oc3ccc(S(=O)(=O)N4CCCCC4)cc3c2C)cc1Cl |  | inconclusive: 18.4 µM [rising, single point]
42 | O=C(NNC(=O)C1C2C=CC(C2)C1C(=O)O)c1cc(Cl)ccc1O (centres undefined) | inactive: -17.1% | 
43 | COc1ccc(C)cc1N(CC(=O)NCCSCc1cccc(Cl)c1)S(C)(=O)=O |  | inconclusive: 29.1 µM [cytotoxic, single point]
44 | COc1cccc2c3c(c(C)nc12)CC(C)O3 (centres undefined) | inactive: 6.45% | 
45 | CC(=O)c1ccc(NC(=O)c2cccs2)cc1 |  | inconclusive: 20.6 µM [cytotoxic, partial curve, poor fit]
46 | O=C(COC(=O)c1cc([N+](=O)[O-])ccc1NCCO)c1ccccc1 |  | active: 20.6 µM

Row | Structure (SMILES) | activity change, negative = cytotoxicity | Potency
47 | CCOc1cc2[nH]c(=O)n(Cc3ccc(C(=O)N4CCN(c5ccccc5)CC4)cc3)c(=O)c2cc1OCC | inactive: 6.61% | 
48 | COc1ccccc1/C=N/NC(=O)CC(=O)NCc1cccnc1 |  | inconclusive: 18.4 µM [rising, partial curve, poor fit]
49 | Cc1nc(SCC(=O)Nc2ccccc2Cl)c2c(C)c(C)sc2n1 | inactive: 4.17% | 
50 | O=C(CSc1nc(=O)n(Cc2cccnc2)c2c1CCC2)Nc1cccc(Cl)c1 | inactive: 1.2% | 
51 | C=CCN(c1cccc(C(F)(F)F)c1)S(=O)(=O)c1cccc(C(=O)OCC(=O)NC(N)=O)c1 |  | inconclusive: 16.4 µM [cytotoxic, partial curve]
52 | Cc1ccc(Nc2nc(CSc3nnc(-c4cccs4)o3)cs2)cc1 |  | inconclusive: 13 µM [cytotoxic, partial curve]
53 | CC1CCCCN1S(=O)(=O)c1ccc(C(=O)Nc2nnc(C3=COCCO3)o2)cc1 (centres undefined) |  | inconclusive: 16.4 µM [cytotoxic, partial curve, poor fit]
54 | CCC1NC(=O)c2ccccc2N1c1cccc(Cl)c1 (centres undefined) |  | inconclusive: 32.6 µM [cytotoxic, single point]
55 | CCC/C(O)=C1\C(=O)CC(C)(C)CC1=Nc1ccc(OC)cc1OC |  | inconclusive: 29.1 µM [cytotoxic, single point]
56 | O=C(O)c1cccc(-n2cccc2/C=C2\NC(=O)N(Cc3ccc(F)cc3)C2=O)c1 | inactive: 13.4% | 
57 | CCOc1ccc(NC(=O)CN(C)C(=O)c2sc3ccccc3c2Cl)cc1OCC | inactive: 2.53% | 
58 | COc1cc(/C=C/C(=O)c2ccc(C)c([N+](=O)[O-])c2)cc(OC)c1O |  | inconclusive: 18.4 µM [cytotoxic, partial curve]
59 | Cc1nc(-c2ccc(Cl)cc2)sc1CCNC(=O)C(=O)Nc1ccc2c(c1)OCCO2 | inactive: -15.7% | 
60 | CCOC(=O)c1ccc(NC(=O)CCOc2ccc(C)cc2)cc1 |  | inconclusive: 18.4 µM [cytotoxic, partial curve, poor fit]
61 | CCOc1ccc(S(=O)(=O)N2CCN(C(=O)CCOc3ccccc3C)CC2)cc1 | inactive: -18.1% | 
62 | CC1CC(C)CN(C(=O)c2cccc(S(=O)(=O)NCc3ccccc3)c2)C1 (centres undefined) | inactive: -5.39% | 
63 | Cc1ccc(CNc2nc3c(S(=O)(=O)c4ccc(C)c(C)c4)nnn3c3ccc(Cl)cc23)cc1 |  | inconclusive: 16.4 µM [rising, single point]
64 | Cc1cc(-c2n[nH]c(=S)n2/N=C/c2ccc(C)s2)n[nH]1 |  | inconclusive: 11.6 µM [rising, partial curve, poor fit]
65 | CCOc1ccccc1Nc1nc(N)nc(Cl)c1CC |  | inconclusive: 18.4 µM [cytotoxic, single point]
66 | CC(=O)Nc1ccc(/C(C)=N/NC(=O)c2ccc(COc3ccccc3Cl)o2)cc1 | inactive: -5.78% | 
67 | Cc1ccc(CNC(=O)CCn2ccc3cc(S(=O)(=O)N4CCCC4)ccc32)cc1 |  | inconclusive: 18.4 µM [cytotoxic, single point]
68 | Cc1ccc(NC2c3ncccc3C(=O)N2Cc2cccs2)cc1 (centres undefined) |  | inconclusive: 5.8 µM [cytotoxic, partial curve]
69 | CC(=O)N(C)c1ccc(NC(=S)Nc2ccccc2)cc1 |  | inconclusive: 29.1 µM [cytotoxic, single point]
